Reference: patent US11957716B2 (Immatics Biotechnologies GmbH, priority 2021, dated 2024)

These substances were tested on HLA molecules from shock-frozen tissue samples (assay: Identification and relative quantitation of tumor associated peptides presented on the cell surface by LC-MS (XPRESIDENT)). Details: all indications on which the peptide was identified at least once, independent of the HLA typing of the sample or the antibody used.
Design: species or system human
In the case of “1 (AILAPPAILK; listed as Homo sapiens) [compound 1]”, the “Peptide presentation on cancer types” value is reported as “BRCA, CCC, CRC, GBC, HCC, HNSCC, MEL, NSCLC, OC, OSCAR, PACA, PRCA, UBC, UEC”. In the case of “2 (GTVFVLLSK; listed as Homo sapiens) [compound 2]”, the “Peptide presentation on cancer types” value is reported as “HNSCC, NSCLC, OSCAR, RCC”. In the case of “3 (VYIASSFKI; listed as Homo sapiens) [compound 3]”, the “Peptide presentation on cancer types” value is reported as “HCC, NSCLC”. “4 (IQAPALLKV; listed as Homo sapiens) [compound 4]” was tested, and the “Peptide presentation on cancer types” value was “CLL, CRC, NHL”. “5 (METADRPEW; listed as Homo sapiens) [compound 5]” was tested, and the “Peptide presentation on cancer types” value was “BRCA, PRCA”. For “6 (SHSLPAFTL; listed as Homo sapiens) [compound 6]”, the “Peptide presentation on cancer types” value was “PRCA”. For “7 (IYIPTNSIYKF; listed as Homo sapiens) [compound 7]”, the “Peptide presentation on cancer types” value was “HCC, PRCA”. With “8 (VIYNQTLMK; listed as Homo sapiens) [compound 8]” the “Peptide presentation on cancer types” value was “CCC, HCC”. “9 (LLGVVSHSV; listed as Homo sapiens) [compound 9]” was tested, and the “Peptide presentation on cancer types” value was “CLL, NHL”. In the case of “10 (ILMILQPQL; listed as Homo sapiens) [compound 10]”, the “Peptide presentation on cancer types” value is reported as “HNSCC, NSCLC, NSCLC, RCC, UEC”. In the case of “11 (TEIGTVIKLF; listed as Homo sapiens) [compound 11]”, the “Peptide presentation on cancer types” value is reported as “PRCA”. “12 (RLQEGLAAL; listed as Homo sapiens) [compound 12]” was tested, and the “Peptide presentation on cancer types” value was “RCC”. With “13 (LYDTVTHTF; listed as Homo sapiens) [compound 13]” the “Peptide presentation on cancer types” value was “GC, RCC”. “14 (ILAPPQRISF; listed as Homo sapiens) [compound 14]” was tested, and the “Peptide presentation on cancer types” value was “CRC, GBC, HNSCC, NSCLC, OSCAR, PACA, SCLC”. With “15 (SPVETRSLL; listed as Homo sapiens) [compound 15]” the “Peptide presentation on cancer types” value was “CCC, HNSCC, NSCLC, PACA”. In the case of “16 (NFHTLAQQLLF; listed as Homo sapiens) [compound 16]”, the “Peptide presentation on cancer types” value is reported as “HNSCC, NSCLC”. “17 (MVNWSLTNK; listed as Homo sapiens) [compound 17]” was tested, and the “Peptide presentation on cancer types” value was “HNSCC, OSCAR, UEC”. With “18 (SLSKLVATV; listed as Homo sapiens) [compound 18]” the “Peptide presentation on cancer types” value was “CCC, CRC, GC, OSCAR, PACA”. “19 (RILEVVRQPK; listed as Homo sapiens) [compound 19]” was tested, and the “Peptide presentation on cancer types” value was “HCC, HNSCC, MEL, NSCLC, UBC”. With “20 (ILAPPAILK; listed as Homo sapiens) [compound 20]” the “Peptide presentation on cancer types” value was “BRCA, CCC, CRC, GBC, HCC, HNSCC, MEL, NSCLC, OC, OSCAR, UBC, UEC”. In the case of “21 (MLSAQFILK; listed as Homo sapiens) [compound 21]”, the “Peptide presentation on cancer types” value is reported as “NHL”. “22 (RVIEVVMNSK; listed as Homo sapiens) [compound 22]” was tested, and the “Peptide presentation on cancer types” value was “GBM, HCC, HNSCC, MEL”. “23 (AETKQFWSA; listed as Homo sapiens) [compound 23]” was tested, and the “Peptide presentation on cancer types” value was “GC, OSCAR, PRCA, UTC”. With “24 (LIYIPTNSIYK; listed as Homo sapiens) [compound 24]” the “Peptide presentation on cancer types” value was “HCC, PRCA”. With “25 (GVCSTLTIK; listed as Homo sapiens) [compound 25]” the “Peptide presentation on cancer types” value was “CRC, GC, NSCLC, RCC, UBC”. For “26 (ETNTIEFIY; listed as Homo sapiens) [compound 26]”, the “Peptide presentation on cancer types” value was “BRCA, CRC, NSCLC, MEL, RCC, UBC”. For “27 (SQAKQITIW; listed as Homo sapiens) [compound 27]”, the “Peptide presentation on cancer types” value was “AML, CCC, HCC, PACA”. With “28 (ATLQAVTLYKK; listed as Homo sapiens) [compound 28]” the “Peptide presentation on cancer types” value was “MEL”. In the case of “29 (GTFIAPVMK; listed as Homo sapiens) [compound 29]”, the “Peptide presentation on cancer types” value is reported as “CRC, HNSCC, NSCLC, OSCAR”. In the case of “30 (SLKSSILFL; listed as Homo sapiens) [compound 30]”, the “Peptide presentation on cancer types” value is reported as “CCC, GC, HNSCC, NSCLC, PACA”. For “31 (VFLLLPYPRF; listed as Homo sapiens) [compound 31]”, the “Peptide presentation on cancer types” value was “OC, RCC”. With “32 (TAMTTLMAF; listed as Homo sapiens) [compound 32]” the “Peptide presentation on cancer types” value was “HNSCC, MEL, OSCAR, PACA, UEC”. In the case of “33 (AYIPFPPLI; listed as Homo sapiens) [compound 33]”, the “Peptide presentation on cancer types” value is reported as “HCC, PRCA”. In the case of “34 (LLFKGLMWK; listed as Homo sapiens) [compound 34]”, the “Peptide presentation on cancer types” value is reported as “HCC, MEL, UBC”. “35 (SLATAISAK; listed as Homo sapiens) [compound 35]” was tested, and the “Peptide presentation on cancer types” value was “CLL, NHL”. For “36 (KEIEAQEAA; listed as Homo sapiens) [compound 36]”, the “Peptide presentation on cancer types” value was “CRC, OC, RCC, UEC”. “37 (RLYSGSSFLY; listed as Homo sapiens) [compound 37]” was tested, and the “Peptide presentation on cancer types” value was “MEL”. “38 (AVVSHFILY; listed as Homo sapiens) [compound 38]” was tested, and the “Peptide presentation on cancer types” value was “AML, GBC, MEL”. In the case of “39 (RELGVGIAL; listed as Homo sapiens) [compound 39]”, the “Peptide presentation on cancer types” value is reported as “HNSCC, OSCAR, UBC”. For “40 (LYQTTIELF; listed as Homo sapiens) [compound 40]”, the “Peptide presentation on cancer types” value was “PRCA”. For “41 (APQPRSLAA; listed as Homo sapiens) [compound 41]”, the “Peptide presentation on cancer types” value was “BRCA, CCC, GC, HCC, HNSCC, MEL, NHL, NSCLC”. “42 (LLSRGILIL; listed as Homo sapiens) [compound 42]” was tested, and the “Peptide presentation on cancer types” value was “CCC, CRC, GC, NSCLC, PRCA”. In the case of “43 (VFIPSVINL; listed as Homo sapiens) [compound 43]”, the “Peptide presentation on cancer types” value is reported as “PRCA”. With “44 (SLFPYFLNK; listed as Homo sapiens) [compound 44]” the “Peptide presentation on cancer types” value was “MEL”. With “45 (SLFPISLTV; listed as Homo sapiens) [compound 45]” the “Peptide presentation on cancer types” value was “HNSCC, NSCLC, SCLC”. With “46 (GESIYLLVRKW; listed as Homo sapiens) [compound 46]” the “Peptide presentation on cancer types” value was “CLL, NHL”. “47 (LYIFTTRPF; listed as Homo sapiens) [compound 47]” was tested, and the “Peptide presentation on cancer types” value was “MEL, NSCLC”. In the case of “48 (TEMSVSALY; listed as Homo sapiens) [compound 48]”, the “Peptide presentation on cancer types” value is reported as “BRCA”. For “49 (IYFHLNNWTI; listed as Homo sapiens) [compound 49]”, the “Peptide presentation on cancer types” value was “HNSCC, NSCLC”. “50 (KTIDLVIVR; listed as Homo sapiens) [compound 50]” was tested, and the “Peptide presentation on cancer types” value was “HNSCC, NSCLC, UBC”. With “51 (SVFSLVHLFDK; listed as Homo sapiens) [compound 51]” the “Peptide presentation on cancer types” value was “NHL, RCC”. With “52 (SPLPHLGPL; listed as Homo sapiens) [compound 52]” the “Peptide presentation on cancer types” value was “BRCA, CRC, GC, HCC, RCC”. “53 (TTLENLPQK; listed as Homo sapiens) [compound 53]” was tested, and the “Peptide presentation on cancer types” value was “BRCA, GBC, NSCLC, OC, OSCAR, PACA, UEC”. For “54 (ASSPVILLL; listed as Homo sapiens) [compound 54]”, the “Peptide presentation on cancer types” value was “HCC, HNSCC, MEL, NSCLC, OC, UBC, UEC”. With “55 (SPVSASWIL; listed as Homo sapiens) [compound 55]” the “Peptide presentation on cancer types” value was “MEL, UEC”. With “56 (DVDIHKDLY; listed as Homo sapiens) [compound 56]” the “Peptide presentation on cancer types” value was “PRCA”. With “57 (IIIDRILLL; listed as Homo sapiens) [compound 57]” the “Peptide presentation on cancer types” value was “NSCLC”. For “58 (REQLDGATL; listed as Homo sapiens) [compound 58]”, the “Peptide presentation on cancer types” value was “BRCA, CCC, CRC, GBC, GC, HNSCC, MEL, NSCLC, OC, OSCAR, PACA”. In the case of “59 (AVDLGVLEL; listed as Homo sapiens) [compound 59]”, the “Peptide presentation on cancer types” value is reported as “NHL, MEL, OC, RCC”. With “60 (VSPDEVLALW; listed as Homo sapiens) [compound 60]” the “Peptide presentation on cancer types” value was “HNSCC, MEL, OC, UBC”. With “61 (GLIAFAIFK; listed as Homo sapiens) [compound 61]” the “Peptide presentation on cancer types” value was “CRC, GC”. For “62 (SFSLLLPYL; listed as Homo sapiens) [compound 62]”, the “Peptide presentation on cancer types” value was “AML, CRC, HCC, MEL, NSCLC”. For “64 (LPTRSLPAF; listed as Homo sapiens) [compound 64]”, the “Peptide presentation on cancer types” value was “RCC”. For “65 (NSDLFYLLL; listed as Homo sapiens) [compound 65]”, the “Peptide presentation on cancer types” value was “NSCLC, OSCAR, PACA, UBC”. With “66 (RPLILIRI; listed as Homo sapiens) [compound 66]” the “Peptide presentation on cancer types” value was “AML, CRC, GBC, HNSCC, RCC”. In the case of “67 (GRFWLPFNF; listed as Homo sapiens) [compound 67]”, the “Peptide presentation on cancer types” value is reported as “MEL, PRCA, SCLC, UEC”. With “68 (TVDKGELLY; listed as Homo sapiens) [compound 68]” the “Peptide presentation on cancer types” value was “BRCA, GBC, GC, HCC, HNSCC, NSCLC, OC, OSCAR, PACA, RCC, UBC”. In the case of “69 (KYPTIICGF; listed as Homo sapiens) [compound 69]”, the “Peptide presentation on cancer types” value is reported as “CRC, GBC”. In the case of “70 (LIAGLIFLK; listed as Homo sapiens) [compound 70]”, the “Peptide presentation on cancer types” value is reported as “CLL, NHL, OC, RCC, UBC, UEC”. With “71 (LIDSLLLLL; listed as Homo sapiens) [compound 71]” the “Peptide presentation on cancer types” value was “MEL, NHL, OC”. For “72 (GSCSFALSR; listed as Homo sapiens) [compound 72]”, the “Peptide presentation on cancer types” value was “CCC, GC, UBC”. “73 (NQKGLISL; listed as Homo sapiens) [compound 73]” was tested, and the “Peptide presentation on cancer types” value was “CLL, GBC, MEL, NHL, NSCLC, RCC”. With “74 (TLNVLITL; listed as Homo sapiens) [compound 74]” the “Peptide presentation on cancer types” value was “CRC, GC, MEL, NSCLC, OC, RCC”. In the case of “75 (TTAAVYILK; listed as Homo sapiens) [compound 75]”, the “Peptide presentation on cancer types” value is reported as “NHL, OC”. In the case of “76 (VQSGVPSRF; listed as Homo sapiens) [compound 76]”, the “Peptide presentation on cancer types” value is reported as “GBC, GC, NSCLC”. “77 (YPDVPIGQL; listed as Homo sapiens) [compound 77]” was tested, and the “Peptide presentation on cancer types” value was “CRC”. For “78 (TPSHSTPSF; listed as Homo sapiens) [compound 78]”, the “Peptide presentation on cancer types” value was “GC, PACA”. For “79 (SLFRLSISF; listed as Homo sapiens) [compound 79]”, the “Peptide presentation on cancer types” value was “BRCA, NSCLC, PACA, RCC, UBC”.
